# Test system: thrombus formation in carotid artery
# Test: Rabbit ECAT model
# Format: in vivo
# Conditions: ED80 (rabbit ECAT) versus 2×Base (human PRP)
# Procedure: Briefly, male, New Zealand, white rabbits were anesthetized with ketamine (50 mg/kg+50 mg/kg/h i.m.) and xylazine (10 mg/kg+10 mg/kg/h i.m.). These anesthetics were supplemented as needed. An electromagnetic flow probe was placed on a segment of an isolated carotid artery to monitor blood flow. Thrombus formation was induced by electrical stimulation of the carotid artery for 3 min at 4 mA using an external stainless steel bipolar electrode. […] Plasma concentrations were determined in blood samples taken at the end of the experiment by liquid chromatography-tandem mass spectrometry.
# Carotid blood flow was measured continuously over the 90-min period of thrombus formation and total carotid blood flow was calculated as an area under the carotid blood flow-time curve. Preservation of total CBF relative to sustained baseline flow was used to assess antithrombotic activity. The drug concentrations which maintained total blood flow at 80% of baseline (ED80) was the common comparator among antithrombotic agents.
row,SMILES,concentration needed to achieve ED80 in rabbit ECAT model relative to 2×Base concentration
1,"NCc1ccccc1-n1nc(C(F)(F)F)cc1C(=O)Nc1ccc(-c2ccccc2S(N)(=O)=O)cc1F [1-(2-aminomethylphenyl)-3-trifluoromethyl-N-[3-fluoro-2′-(aminosulfonyl)[1,1′-biphenyl)]-4-yl]-1H-pyrazole-5-carboxyamide]",about 10 fold
2,"COc1cc([C@@H]2Nc3ccc(C(=N)N)cc3[C@H]3c4ccccc4C[C@H]32)c(-c2ccc(C(=O)O)cc2)cc1O [Compound A, 2′-((6R,6aR,11bR)-2-Carbamimidoyl-5,6a,7,11b-tetrahydro-6H-indeno[2,1-c]quinolin-6-yl)-5′-hydroxy-4′-methoxy-biphenyl-4-carboxylic acid]",very similar
3,"CS(=O)(=O)c1ccccc1-c1ccc(NC(=O)c2cc(C(F)(F)F)nn2-c2cccc(CN)c2)c(F)c1 [Compound B, 1-[3-(aminomethyl)phenyl]-N-[3-fluoro-2′-(methylsulfonyl)[1,1′-biphenyl]-4-yl]-3-(trifluoromethyl)-1H-pyrazole-5-carboxamide]",about 10 fold
